# Measurements: article PMC7596570
# Results are given in words; binding and its absence hold for the method and conditions named. In cells and extracts the contact can be indirect. Some entries that bind do so weakly or less than the wild type.
# B1: Caspase-8, Q14790 1-479 (enzyme)
# chain: MDFSRNLYDIGEQLDSEDLASLKFLSLDYIPQRKQEPIKDALMLFQRLQEKRMLEESNLSFLKELLFRINRLDLLITYLNTRKEEMERELQTPGRAQISAYRVMLYQISEEVSRSELRSFKFLLQEEISKCKLDDDMNLLDIFIEMEKRVILGEGKLDILKRVCAQINKSLLKIINDYEEFSKERSSSLEGSPDEFSNGEELCGVMTISDSPREQDSESQTLDKVYQMKSKPRGYCLIINNHNFAKAREKVPKLHSIRDRNGTHLDAGALTTTFEELHFEIKPHDDCTVEQIYEILKIYQLMDHSNMDCFICCILSHGDKGIIYGTDGQEAPIYELTSQFTGLKCPSLAGKPKVFFIQACQGDNYQKGIPVETDSEEQPYLEMDLSSPQTRYIPDEADFLLGMATVNNCVSYRNPAEGTWYIQSLCQSLRERCPRGDDILTILTEVNYEVSNKDDKKNMGKQMPQPTFTLRKKLVFPSD
# Biological target: TRAIL Death Receptor 5 (DR5) (human (endogenous in HCT116)), O14763
# Test: co-IP; DR5-DISC IP: AMG 655 (agonistic anti-DR5 antibody)-conjugated Dynabeads added to HCT116 cells (untransfected, or transfected with FLAG-RALB constructs, or SC/siRALB) for the indicated times (1 h, 3 h); lysis in 0.2% NP-40, 20 mM Tris, 150 mM NaCl, 10% glycerol, pH 7.4; beads captured magnetically, western blot
# Details: remark: other sources report otherwise
binder,measurement,value
B1,binding,binds
